The supplement of paper PMC8728848
This is one part of the list.

Assays:
Test in all cases: glycan array binding signal (z-score within array); higher = stronger binding
Conditions in all cases: glycan notation: IUPAC condensed, linker removed
[1] = target: Gal(b1-3)[Fuc(a1-4)]GlcNAc
Procedure, shortened: (§1)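 Columns mapping to the same glycan were averaged after glycan names were converted to IUPAC-condensed notation. The data come from 3228 arrays in the Consortium for Functional Glycomics database, limited to those with an available protein sequence. Binding is reported as a within-array Z-score averaged across arrays of one protein sequence and across linkers.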

[2] = target: Gal(b1-3)[Fuc(a1-4)]GlcNAc(b1-2)Man(a1-3)[Gal(b1-3)[Fuc(a1-4)]GlcNAc(b1-2)Man(a1-6)]Man(b1-4)GlcNAc(b1-4)GlcNAc
Procedure, shortened: as §1

[3] = target: Gal(b1-3)[Fuc(a1-4)]GlcNAc(b1-2)Man(a1-3)[Gal(b1-3)[Fuc(a1-4)]GlcNAc(b1-2)Man(a1-6)]Man(b1-4)GlcNAc(b1-4)[Fuc(a1-6)]GlcNAc
Procedure, shortened: as §1

[4] = target: Gal(b1-3)[Fuc(a1-4)]GlcNAc(b1-3)Gal(b1-3)[Fuc(a1-4)]GlcNAc
Procedure, shortened: as §1

[5] = target: Gal(b1-3)[Fuc(a1-4)]GlcNAc(b1-3)Gal(b1-4)GlcNAc
Procedure, shortened: as §1

[6] = target: Gal(b1-3)[Fuc(a1-4)]GlcNAc(b1-3)Gal(b1-4)[Fuc(a1-3)]GlcNAc
Procedure, shortened: as §1

[7] = target: Gal(b1-3)[GlcNAc(b1-6)]GalNAc
Procedure, shortened: as §1

[8] = target: Gal(b1-3)[Neu5Ac(a2-6)]GalNAc
Procedure, shortened: as §1

[9] = target: Gal(b1-3)[Neu5Ac(a2-6)]GlcNAc(b1-6)Gal(b1-4)Glc
Procedure, shortened: as §1

[10] = target: Gal(b1-3)[Neu5Ac(b2-6)]GalNAc
Procedure, shortened: as §1

[11] = target: Gal(b1-4)GalNAc(a1-3)[Fuc(a1-2)]Gal(b1-4)GlcNAc
Procedure, shortened: as §1

[12] = target: Gal(b1-4)GalNAc(b1-3)[Fuc(a1-2)]Gal(b1-4)GlcNAc
Procedure, shortened: as §1

[13] = target: Gal(b1-4)Glc
Procedure, shortened: as §1

[14] = target: Gal(b1-4)Glc6S
Procedure, shortened: as §1

[15] = target: Gal(b1-4)GlcNAc
Procedure, shortened: as §1

[16] = target: Gal(b1-4)GlcNAc(a1-6)Gal(b1-4)GlcNAc
Procedure, shortened: as §1

[17] = target: Gal(b1-4)GlcNAc(b1-2)Man(a1-3)Man(b1-4)GlcNAc(b1-4)GlcNAc
Procedure, shortened: as §1

[18] = target: Gal(b1-4)GlcNAc(b1-2)Man(a1-3)[Gal(b1-4)GlcNAc(b1-2)Man(a1-6)]Man(b1-4)GlcNAc(b1-4)GlcNAc
Procedure, shortened: as §1

[19] = target: Gal(b1-4)GlcNAc(b1-2)Man(a1-3)[Gal(b1-4)GlcNAc(b1-2)Man(a1-6)]Man(b1-4)GlcNAc(b1-4)[Fuc(a1-6)]GlcNAc
Procedure, shortened: as §1

[20] = target: Gal(b1-4)GlcNAc(b1-2)Man(a1-3)[GlcNAc(b1-2)Man(a1-6)]Man(b1-4)GlcNAc(b1-4)GlcNAc
Procedure, shortened: as §1

[21] = target: Gal(b1-4)GlcNAc(b1-2)Man(a1-3)[Man(a1-6)]Man(b1-4)GlcNAc(b1-4)GlcNAc
Procedure, shortened: as §1

[22] = target: Gal(b1-4)GlcNAc(b1-2)Man(a1-6)Man(b1-4)GlcNAc(b1-4)GlcNAc
Procedure, shortened: as §1

[23] = target: Gal(b1-4)GlcNAc(b1-2)Man(a1-6)[GlcNAc(b1-2)Man(a1-3)]Man(b1-4)GlcNAc(b1-4)GlcNAc
Procedure, shortened: as §1

[24] = target: Gal(b1-4)GlcNAc(b1-2)Man(a1-6)[Man(a1-3)]Man(b1-4)GlcNAc(b1-4)GlcNAc
Procedure, shortened: as §1

[25] = target: Gal(b1-4)GlcNAc(b1-2)[Gal(b1-4)GlcNAc(b1-4)]Man(a1-3)[Gal(b1-4)GlcNAc(b1-2)Man(a1-6)]Man(b1-4)GlcNAc(b1-4)GlcNAc
Procedure, shortened: as §1

[26] = target: Gal(b1-4)GlcNAc(b1-2)[Gal(b1-4)GlcNAc(b1-4)]Man(a1-3)[Gal(b1-4)GlcNAc(b1-2)[Gal(b1-4)GlcNAc(b1-6)]Man(a1-6)]Man(b1-4)GlcNAc(b1-4)GlcNAc
Procedure, shortened: as §1

[27] = target: Gal(b1-4)GlcNAc(b1-3)Gal(b1-3)GlcNAc
Procedure, shortened: as §1

[28] = target: Gal(b1-4)GlcNAc(b1-3)Gal(b1-4)Glc
Procedure, shortened: as §1

[29] = target: Gal(b1-4)GlcNAc(b1-3)Gal(b1-4)GlcNAc
Procedure, shortened: as §1

[30] = target: Gal(b1-4)GlcNAc(b1-3)Gal(b1-4)GlcNAc(b1-3)Gal(b1-4)GlcNAc
Procedure, shortened: as §1

[31] = target: Gal(b1-4)GlcNAc(b1-3)Gal(b1-4)[Fuc(a1-3)]GlcNAc(b1-3)Gal(b1-4)[Fuc(a1-3)]GlcNAc
Procedure, shortened: as §1

[32] = target: Gal(b1-4)GlcNAc(b1-3)GalNAc
Procedure, shortened: as §1

[33] = target: Gal(b1-4)GlcNAc(b1-3)[Gal(b1-4)GlcNAc(b1-6)]Gal(b1-4)GlcNAc
Procedure, shortened: as §1

[34] = target: Gal(b1-4)GlcNAc(b1-3)[Gal(b1-4)GlcNAc(b1-6)]GalNAc
Procedure, shortened: as §1

[35] = target: Gal(b1-4)GlcNAc(b1-3)[GlcNAc(b1-6)]Gal(b1-4)GlcNAc
Procedure, shortened: as §1

[36] = target: Gal(b1-4)GlcNAc(b1-6)Gal(b1-4)GlcNAc
Procedure, shortened: as §1

[37] = target: Gal(b1-4)GlcNAc(b1-6)GalNAc
Procedure, shortened: as §1

[38] = target: Gal(b1-4)GlcNAc(b1-6)[Gal(b1-3)]GalNAc
Procedure, shortened: as §1

[39] = target: Gal3S(b1-3)GalNAc
Procedure, shortened: as §1

[40] = target: Gal3S(b1-3)GlcNAc
Procedure, shortened: as §1

[41] = target: Gal3S(b1-3)[Fuc(a1-4)]GlcNAc
Procedure, shortened: as §1

[42] = target: Gal3S(b1-4)Glc
Procedure, shortened: as §1

[43] = target: Gal3S(b1-4)Glc6S
Procedure, shortened: as §1

[44] = target: Gal3S(b1-4)GlcNAc
Procedure, shortened: as §1

[45] = target: Gal3S(b1-4)GlcNAc6S
Procedure, shortened: as §1

B1: CREG (Mus musculus), O88668 (protein)
chain: MAARAPELARSLLAALLAPALVALLVSPASGRGGRDHGDWDVDRRLPPLPPREDGPRVARFVTHVSDWGSLATISTIKEVRGWPFADIISISDGPPGEGTGEPYMYLSPLQQAVSDLQENPEATLTMSLAQTVYCRNHGFDPQSPLCVHIMMSGTVTKVNKTEEDYARDSLFVRHPEMKHWPSSHNWFFAKLKISRIWVLDYFGGPKVVTPEEYFNVTLQ
glycan array binding signal (z-score) [1]: 0.01 | glycan array binding signal (z-score) [2]: 6.79 | glycan array binding signal (z-score) [3]: 1.15 | glycan array binding signal (z-score) [4]: -0.353 | glycan array binding signal (z-score) [5]: 0.78 | glycan array binding signal (z-score) [6]: -1.05 | glycan array binding signal (z-score) [7]: -0.993 | glycan array binding signal (z-score) [8]: -0.832 | glycan array binding signal (z-score) [9]: -0.76 | glycan array binding signal (z-score) [10]: -0.2 | glycan array binding signal (z-score) [11]: 0.494 | glycan array binding signal (z-score) [12]: -0.296 | glycan array binding signal (z-score) [13]: -0.925 | glycan array binding signal (z-score) [14]: -0.13 | glycan array binding signal (z-score) [15]: -0.275 | glycan array binding signal (z-score) [16]: -1.31 | glycan array binding signal (z-score) [17]: -0.442 | glycan array binding signal (z-score) [18]: -0.345 | glycan array binding signal (z-score) [19]: -0.152 | glycan array binding signal (z-score) [20]: -0.966 | glycan array binding signal (z-score) [21]: -0.344 | glycan array binding signal (z-score) [22]: 0.102 | glycan array binding signal (z-score) [23]: -0.462 | glycan array binding signal (z-score) [24]: 0.159 | glycan array binding signal (z-score) [25]: 0.311 | glycan array binding signal (z-score) [26]: -1.07 | glycan array binding signal (z-score) [27]: -1.13 | glycan array binding signal (z-score) [28]: 0.23 | glycan array binding signal (z-score) [29]: -0.941 | glycan array binding signal (z-score) [30]: -0.96 | glycan array binding signal (z-score) [31]: -0.877 | glycan array binding signal (z-score) [32]: -0.139 | glycan array binding signal (z-score) [33]: -0.344 | glycan array binding signal (z-score) [34]: -0.072 | glycan array binding signal (z-score) [35]: -0.416 | glycan array binding signal (z-score) [36]: -0.162 | glycan array binding signal (z-score) [37]: 1.18 | glycan array binding signal (z-score) [38]: -0.076 | glycan array binding signal (z-score) [39]: 0.036 | glycan array binding signal (z-score) [40]: 0.636 | glycan array binding signal (z-score) [41]: -1.04 | glycan array binding signal (z-score) [42]: -0.026 | glycan array binding signal (z-score) [43]: -0.488 | glycan array binding signal (z-score) [44]: -1.01 | glycan array binding signal (z-score) [45]: 0.604
